Reference: publication PMC5955088
Read-outs that look alike come from different tables or passages of the source. These are yes or no findings as the source states them, for the method shown. For part of these data: Binding seen in cells or lysates may run through a third protein. Some entries that bind do so weakly or less than the wild type. For part of these data: Tags and fused reporters may be left off the sequences shown. Values belong to the molecule of their own block, whether it stands above or below them.

By UniProt entry, the sequences of proteins in these tests, tags left out.
UniProt P42866: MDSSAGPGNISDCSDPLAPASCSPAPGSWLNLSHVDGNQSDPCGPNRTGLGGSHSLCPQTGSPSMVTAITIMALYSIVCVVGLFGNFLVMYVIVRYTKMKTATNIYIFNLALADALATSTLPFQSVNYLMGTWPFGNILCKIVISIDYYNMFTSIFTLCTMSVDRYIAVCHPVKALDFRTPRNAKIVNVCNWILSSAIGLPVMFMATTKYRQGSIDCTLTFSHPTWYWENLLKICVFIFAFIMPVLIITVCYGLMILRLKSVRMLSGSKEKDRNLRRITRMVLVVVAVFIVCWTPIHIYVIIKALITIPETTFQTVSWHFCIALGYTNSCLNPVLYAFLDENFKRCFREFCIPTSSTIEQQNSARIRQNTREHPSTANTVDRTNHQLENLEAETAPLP
UniProt P35363: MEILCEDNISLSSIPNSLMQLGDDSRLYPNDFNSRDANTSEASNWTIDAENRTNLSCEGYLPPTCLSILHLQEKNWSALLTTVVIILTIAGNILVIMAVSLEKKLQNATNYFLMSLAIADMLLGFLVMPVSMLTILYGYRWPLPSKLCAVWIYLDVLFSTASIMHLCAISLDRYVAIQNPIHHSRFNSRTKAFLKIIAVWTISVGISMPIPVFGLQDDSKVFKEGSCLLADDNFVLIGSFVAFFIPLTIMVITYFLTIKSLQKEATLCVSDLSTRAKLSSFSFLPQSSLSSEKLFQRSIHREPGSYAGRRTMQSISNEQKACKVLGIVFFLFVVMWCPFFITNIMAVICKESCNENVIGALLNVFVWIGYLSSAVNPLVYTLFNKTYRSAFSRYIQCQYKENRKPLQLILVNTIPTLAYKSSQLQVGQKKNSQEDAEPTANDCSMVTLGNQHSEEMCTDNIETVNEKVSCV
UniProt Q64264: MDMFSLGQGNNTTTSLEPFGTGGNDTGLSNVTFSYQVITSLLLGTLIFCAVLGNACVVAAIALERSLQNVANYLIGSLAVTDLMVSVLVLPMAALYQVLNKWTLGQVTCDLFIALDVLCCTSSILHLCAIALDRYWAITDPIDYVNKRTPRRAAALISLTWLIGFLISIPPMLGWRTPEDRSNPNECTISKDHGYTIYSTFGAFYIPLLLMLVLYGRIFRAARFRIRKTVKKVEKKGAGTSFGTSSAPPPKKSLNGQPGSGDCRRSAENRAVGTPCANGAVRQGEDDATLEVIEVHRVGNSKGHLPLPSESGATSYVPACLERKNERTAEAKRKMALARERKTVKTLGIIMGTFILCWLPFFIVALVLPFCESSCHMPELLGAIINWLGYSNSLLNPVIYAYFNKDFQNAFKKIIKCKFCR
UniProt O55242: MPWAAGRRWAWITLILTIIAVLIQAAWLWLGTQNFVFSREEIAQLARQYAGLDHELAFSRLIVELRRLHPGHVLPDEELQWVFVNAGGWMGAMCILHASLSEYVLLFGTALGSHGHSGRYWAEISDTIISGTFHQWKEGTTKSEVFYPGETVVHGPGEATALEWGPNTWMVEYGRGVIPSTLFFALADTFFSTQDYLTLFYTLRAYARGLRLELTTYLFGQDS

Tests used:
[1] = molecular target: mu opioid receptor (MOR), endogenous in mouse cerebral cortex synaptosomes (mouse (endogenous in cerebral cortex)) (UniProt P42866); assay: co-IP; mouse cortical synaptosomal fraction, Nonidet P-40 solubilized; GPCR immunoprecipitated overnight at 4°C with biotin-conjugated IgG against its extracellular sequence; co-precipitated NR1 (C1) and HINT1 by Western blot; mice treated icv with saline, morphine 10 nmol, fenfluramine 10 nmol or S1RA 3 nmol
[2] = molecular target: serotonin 5HT2A receptor (5HT2AR), endogenous in mouse cerebral cortex synaptosomes (mouse (endogenous in cerebral cortex)) (UniProt P35363); assay: as above
[3] = molecular target: serotonin 5HT1A receptor (5HT1AR), endogenous in mouse cerebral cortex synaptosomes (mouse (endogenous in cerebral cortex)) (UniProt Q64264); assay: as above
[4] = molecular target: cannabinoid type 1 receptor (CB1R), endogenous in mouse cerebral cortex synaptosomes (mouse (endogenous in cerebral cortex)) (UniProt P47746); assay: as above
[5] = molecular target: C-terminal region of the glutamate receptor NMDAR1 (residues 834-938), C0-C1-C2, GST-tagged, covalently coupled to NHS-activated Sepharose (mouse) (UniProt P35438); assay: pull-down; NR1 C-terminal sequence covalently coupled to NHS-activated Sepharose 4FF; 100 nM σ1R, 20 min at RT, 50 mM Tris-HCl pH 7.4, 0.2% CHAPS, 2.5 mM CaCl2; three washes; bound σ1R by Western blot; then exposed to σ1R ligands (progesterone, S1RA, fenfluramine, norfenfluramine, PPCC); both purified
[6] = molecular target: mu opioid receptor (MOR), endogenous in mouse cerebral cortex synaptosomes (mouse (endogenous in cerebral cortex)) (UniProt P42866); assay: co-IP; mouse cortical synaptosomal fraction, Nonidet P-40 solubilized; GPCR immunoprecipitated overnight at 4°C with biotin-conjugated IgG against its extracellular sequence; co-precipitated NR1 (C1) and HINT1 by Western blot; mice treated icv with saline, morphine 10 nmol, fenfluramine 10 nmol or S1RA 3 nmol; remark: listed apart in the source
[7] = molecular target: serotonin 5HT2A receptor (5HT2AR), endogenous in mouse cerebral cortex synaptosomes (mouse (endogenous in cerebral cortex)) (UniProt P35363); assay: as above; remark: listed apart in the source
[8] = molecular target: serotonin 5HT1A receptor (5HT1AR), endogenous in mouse cerebral cortex synaptosomes (mouse (endogenous in cerebral cortex)) (UniProt Q64264); assay: as above; remark: listed apart in the source
[9] = molecular target: cannabinoid type 1 receptor (CB1R), endogenous in mouse cerebral cortex synaptosomes (mouse (endogenous in cerebral cortex)) (UniProt P47746); assay: as above; remark: listed apart in the source

binding [1]: binds
binding [2]: binds
binding [3]: binds
binding [4]: binds
Molecule: NMDAR NR1 subunit, endogenous in mouse cerebral cortex synaptosomes (from UniProt P35438-1 19-938) (receptor)

binding [5]: binds
Molecule: sigma receptor type 1 (σ1R), murine full-length (1-223), recombinant, GST-free (from UniProt O55242 1-223)

binding [6]: binds
binding [7]: binds
binding [8]: binds
binding [9]: binds
B1: histidine triad nucleotide-binding protein 1 (HINT1), endogenous in mouse cerebral cortex synaptosomes (protein, UniProt P70349 1-126)
chain: MADEIAKAQVAQPGGDTIFGKIIRKEIPAKIIFEDDRCLAFHDISPQAPTHFLVIPKKHISQISVADDDDESLLGHLMIVGKKCAADLGLKRGYRMVVNEGADGGQSVYHIHLHVLGGRQMNWPPG
